{"source": "the supplement of paper PMC10663445", "note": "Structures can show the parent of a compound that is named as a salt. The list shows a part of the results. Repeats are few or missing, and single values can be far off.", "data": [{"test_system": "hsa-miR-132-3p", "assay": "miR-132-3p level in NGN2-iNs after compound treatment (TMM-normalised, ComBat batch-corrected) (batch-corrected normalised expression (arbitrary units)); higher = higher miR-132-3p expression", "conditions": "10 µM; 24 h; human iPSC-derived NGN2 neurons (BR43)", "values": [{"smiles": "COc1cc2ncnc(Nc3ccc(O)c(Br)c3)c2cc1OC", "miR-132-3p level in NGN2-iNs": 0.39}, {"smiles": "O=C(O)c1ccc(O)c2ncccc12", "miR-132-3p level in NGN2-iNs": 1.21}, {"smiles": "Nc1ccccc1NC(=O)c1ccc(CNc2nccc(-c3cccnc3)n2)cc1", "note": "[Mocetinostat (MGCD0103)]", "miR-132-3p level in NGN2-iNs": 0.293}, {"smiles": "CC[C@H](C)C(=O)O[C@H]1C[C@H](O)C=C2C=C[C@H](C)[C@H](CC[C@@H](O)C[C@@H](O)CC(=O)O)[C@H]21", "note": "[Pravastatin sodium]", "miR-132-3p level in NGN2-iNs": 1.86}, {"smiles": "CC1=C(C(=O)O)N2C(=O)[C@@H](NC(=O)[C@H](N)c3ccccc3)[C@H]2SC1", "note": "[Cephalexin]", "miR-132-3p level in NGN2-iNs": -0.848}, {"smiles": "COc1ccc2c(c1)c(CC(=O)OCC(=O)O)c(C)n2C(=O)c1ccc(Cl)cc1", "note": "[Acemetacin]", "miR-132-3p level in NGN2-iNs": 1.38}, {"smiles": "Cc1nccn1CC1CCc2c(c3ccccc3n2C)C1=O", "note": "(stereo not drawn) [Ondansetron HCl]", "miR-132-3p level in NGN2-iNs": 0.32}, {"smiles": "CC(=O)NC[C@H]1CN(c2ccc(N3CCOCC3)c(F)c2)C(=O)O1", "note": "[Linezolid]", "miR-132-3p level in NGN2-iNs": -0.0165}, {"smiles": "COc1cc2c(cc1Cc1cccc(Cl)c1F)c(=O)c(C(=O)O)cn2[C@H](CO)C(C)C", "note": "[Elvitegravir (GS-9137, JTK-303)]", "miR-132-3p level in NGN2-iNs": -1.07}, {"smiles": "COc1ccc2cc3[n+](cc2c1OC)CCc1cc2c(cc1-3)OCO2", "note": "[Berberine chloride]", "miR-132-3p level in NGN2-iNs": -1.3}, {"smiles": "CCCCC1C(=O)N(c2ccccc2)N(c2ccccc2)C1=O", "note": "[Phenylbutazone]", "miR-132-3p level in NGN2-iNs": -0.145}, {"smiles": "CN(C)c1cc(NC(=O)CNC(C)(C)C)c(O)c2c1CC1CC3C(N(C)C)C(=O)C(C(N)=O)=C(O)C3(O)C(=O)C1=C2O", "note": "(stereo not drawn) [Tigecycline]", "miR-132-3p level in NGN2-iNs": 0.219}, {"smiles": "CC(=O)/N=c1/sc(S(N)(=O)=O)nn1C", "note": "[Methazolamide]", "miR-132-3p level in NGN2-iNs": 0.00627}, {"smiles": "[Cl][Pt+2][Cl].[NH2-].[NH2-]", "miR-132-3p level in NGN2-iNs": -0.223}, {"smiles": "CCCc1nc2c(C)cc(-c3nc4ccccc4n3C)cc2n1Cc1ccc(-c2ccccc2C(=O)O)cc1", "note": "[Telmisartan]", "miR-132-3p level in NGN2-iNs": -0.0899}, {"smiles": "COCCCOc1cc(C[C@@H](C[C@H](N)[C@@H](O)C[C@H](C(=O)NCC(C)(C)C(N)=O)C(C)C)C(C)C)ccc1OC", "note": "[Aliskiren Hemifumarate]", "miR-132-3p level in NGN2-iNs": 0.309}, {"smiles": "CCC(CC)(NC(=O)C(C)C)C(=O)N[C@@H](CCCN=C(N)N)C(=O)NC1(C(=O)NC(c2ccc(F)cc2)c2ccc(F)cc2)CCCC1", "miR-132-3p level in NGN2-iNs": -0.51}, {"smiles": "O=C(O)Cc1cc(I)c(Oc2ccc(O)c(I)c2)c(I)c1", "note": "[Tiratricol]", "miR-132-3p level in NGN2-iNs": 0.258}, {"smiles": "NS(=O)(=O)C#Cc1ccccc1", "note": "[Pifithrin-μ]", "miR-132-3p level in NGN2-iNs": -0.514}, {"smiles": "Cc1ccc(C(=O)C(C)CN2CCCCC2)cc1", "note": "(stereo not drawn) [Tolperisone HCl]", "miR-132-3p level in NGN2-iNs": -0.231}, {"smiles": "C[C@@H]1O[C@@H](O[C@H]2[C@H](Oc3cc(O)c4c(c3)O[C@H](c3ccc(O)cc3)CC4=O)O[C@H](CO)[C@@H](O)[C@@H]2O)[C@H](O)[C@H](O)[C@H]1O", "note": "[Naringin]", "miR-132-3p level in NGN2-iNs": -0.135}, {"smiles": "N[C@@H](CC(=O)N1CCn2c(nnc2C(F)(F)F)C1)Cc1cc(F)c(F)cc1F", "note": "[Sitagliptin phosphate monohydrate]", "miR-132-3p level in NGN2-iNs": -0.729}, {"smiles": "Cn1cc(/C=C/C(=O)c2cccc(F)c2)cc1/C=C/C(=O)NO", "miR-132-3p level in NGN2-iNs": -0.115}, {"smiles": "Nc1nccc2c1ncn2C1C=C(CO)C(O)C1O", "note": "(stereo not drawn) [3-Deazaneplanocin A (DZNeP)]", "miR-132-3p level in NGN2-iNs": -1.06}, {"smiles": "CO/N=C(\\C(=O)N[C@@H]1C(=O)N2C(C(=O)O)=C(CSC(=O)c3ccco3)CS[C@H]12)c1csc(N)n1", "note": "[Ceftiofur HCl]", "miR-132-3p level in NGN2-iNs": -0.587}, {"smiles": "CN1[C@@H]2CC[C@H]1C[C@@H](OC(c1ccccc1)c1ccccc1)C2", "note": "[Benztropine mesylate]", "miR-132-3p level in NGN2-iNs": -0.624}, {"smiles": "C[C@@H]1O[C@@H](OC[C@H]2O[C@@H](Oc3c(-c4ccc(O)c(O)c4)oc4cc(O)cc(O)c4c3=O)[C@H](O)[C@@H](O)[C@@H]2O)[C@H](O)[C@H](O)[C@H]1O", "note": "[Rutin]", "miR-132-3p level in NGN2-iNs": -0.339}, {"smiles": "CCCC(=O)Nc1ccc(OCC(O)CNC(C)C)c(C(C)=O)c1", "note": "(stereo not drawn) [Acebutolol HCl]", "miR-132-3p level in NGN2-iNs": 0.22}, {"smiles": "COc1ccnc2[nH]cc(C(=O)C(=O)N3CCN(C(=O)c4ccccc4)C[C@H]3C)c12", "miR-132-3p level in NGN2-iNs": 0.656}, {"smiles": "NC(=O)Nc1sc(-c2ccc(F)cc2)cc1C(N)=O", "miR-132-3p level in NGN2-iNs": -0.148}, {"smiles": "C[C@H](CCC(=O)O)[C@H]1CC[C@H]2[C@@H]3C[C@H](O)[C@@H]4C[C@H](O)CC[C@]4(C)[C@H]3CC[C@]12C", "note": "[Hyodeoxycholic acid (HDCA)]", "miR-132-3p level in NGN2-iNs": -1.21}, {"smiles": "CCCCOc1ccc(CC(=O)NO)cc1", "note": "[Bufexamac]", "miR-132-3p level in NGN2-iNs": -0.188}, {"smiles": "Cc1ccc(O)c([C@H](CCN(C(C)C)C(C)C)c2ccccc2)c1", "note": "[Tolterodine tartrate]", "miR-132-3p level in NGN2-iNs": -0.371}, {"smiles": "Cc1cc(C)cc(NC(=O)Cc2ccc(OC(C)(C)C(=O)O)cc2)c1", "note": "[Efaproxiral Sodium]", "miR-132-3p level in NGN2-iNs": -0.484}, {"smiles": "CC(C)NCCCn1c(Sc2cc3c(cc2I)OCO3)nc2c(N)ncnc21", "note": "[Zelavespib (PU-H71)]", "miR-132-3p level in NGN2-iNs": -2.59}, {"smiles": "CN(C)CCC(c1ccccc1)c1ccccn1", "note": "(stereo not drawn) [Pheniramine Maleate]", "miR-132-3p level in NGN2-iNs": -0.222}, {"smiles": "Cc1cccc(Nc2nc(-c3ccncc3)cs2)c1", "miR-132-3p level in NGN2-iNs": 0.384}, {"smiles": "Cc1c(O)cccc1C(=O)N[C@@H](CSc1ccccc1)[C@H](O)CN1C[C@H]2CCCC[C@H]2C[C@H]1C(=O)NC(C)(C)C", "note": "[Nelfinavir Mesylate]", "miR-132-3p level in NGN2-iNs": 0.393}]}]}
